Measured values published in paper PMC10828378.
These are yes or no findings as the source states them, for the method shown. In cells and extracts the contact can be indirect. Some binding calls cover weakened binding; strength is not graded here.

By UniProt entry, the sequences of proteins in these tests, tags left out.
UniProt Q96P20: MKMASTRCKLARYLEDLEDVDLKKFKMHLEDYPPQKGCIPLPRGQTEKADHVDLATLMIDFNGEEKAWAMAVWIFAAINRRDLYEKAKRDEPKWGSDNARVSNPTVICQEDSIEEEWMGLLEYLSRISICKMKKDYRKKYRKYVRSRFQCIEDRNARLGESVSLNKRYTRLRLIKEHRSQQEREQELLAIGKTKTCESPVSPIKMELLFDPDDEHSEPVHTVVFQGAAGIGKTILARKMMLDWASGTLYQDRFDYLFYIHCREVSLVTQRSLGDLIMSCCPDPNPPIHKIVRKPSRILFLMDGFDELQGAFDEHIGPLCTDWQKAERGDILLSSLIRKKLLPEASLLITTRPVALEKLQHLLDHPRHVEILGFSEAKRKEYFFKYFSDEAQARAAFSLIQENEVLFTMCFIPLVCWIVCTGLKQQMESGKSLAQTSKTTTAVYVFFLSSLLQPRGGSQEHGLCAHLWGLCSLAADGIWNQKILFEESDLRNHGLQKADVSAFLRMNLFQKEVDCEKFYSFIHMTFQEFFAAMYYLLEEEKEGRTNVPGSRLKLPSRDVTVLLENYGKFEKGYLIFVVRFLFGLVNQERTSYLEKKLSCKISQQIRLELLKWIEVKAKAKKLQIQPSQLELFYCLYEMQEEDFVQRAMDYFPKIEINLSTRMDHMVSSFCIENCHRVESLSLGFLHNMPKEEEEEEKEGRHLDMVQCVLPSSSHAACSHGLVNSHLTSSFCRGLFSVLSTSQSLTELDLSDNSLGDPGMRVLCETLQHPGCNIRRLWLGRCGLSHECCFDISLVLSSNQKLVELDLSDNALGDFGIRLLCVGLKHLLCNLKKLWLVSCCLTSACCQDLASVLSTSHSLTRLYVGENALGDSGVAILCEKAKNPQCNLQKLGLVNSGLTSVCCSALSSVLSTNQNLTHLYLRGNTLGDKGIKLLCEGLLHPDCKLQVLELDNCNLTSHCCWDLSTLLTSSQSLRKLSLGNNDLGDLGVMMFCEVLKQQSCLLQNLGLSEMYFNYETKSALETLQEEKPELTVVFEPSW

Molecular target: NOD-like receptor family pyrin domain containing 3 (NLRP3) (human (endogenous in HMC3)) (UniProt Q96P20)
Assay: co-IP; HMC3 cells lysed in RIPA buffer, precleared with protein A/G Sepharose beads; lysate incubated with anti-NLRP3 or anti-TRIM59 antibodies or control IgG at 4 °C overnight, then protein A/G Sepharose beads 4 h; bound proteins analysed by western blotting

binding: binds
B1: tripartite motif-containing protein 59 (TRIM59) (protein, UniProt Q8IWR1 1-403)
chain: MHNFEEELTCPICYSIFEDPRVLPCSHTFCRNCLENILQASGNFYIWRPLRIPLKCPNCRSITEIAPTGIESLPVNFALRAIIEKYQQEDHPDIVTCPEHYRQPLNVYCLLDKKLVCGHCLTIGQHHGHPIDDLQSAYLKEKDTPQKLLEQLTDTHWTDLTHLIEKLKEQKSHSEKMIQGDKEAVLQYFKELNDTLEQKKKSFLTALCDVGNLINQEYTPQIERMKEIREQQLELMALTISLQEESPLKFLEKVDDVRQHVQILKQRPLPEVQPVEIYPRVSKILKEEWSRTEIGQIKNVLIPKMKISPKRMSCSWPGKDEKEVEFLKILNIVVVTLISVILMSILFFNQHIITFLSEITLIWFSEASLSVYQSLSNSLHKVKNILCHIFYLLKEFVWKIVSH
